Source: publication PMC4390356

How the values were obtained:
[1] = target: integrin αVβ3 (human (endogenous in corneal fibroblasts)); assay: co-IP; corneal fibroblast lysate in RIPA buffer; magnetic beads coated with anti-integrin αVβ3 or anti-αV antibody; immunoblot with anti-TGFBIp antibody
[2] = target: integrin αV (human (endogenous in corneal fibroblasts)); assay: as above

- binding [1]: binds
- binding [2]: binds
B1: Transforming growth factor-beta-induced protein (TGFBIp) (protein, UniProt Q15582 24-683)
chain: GPAKSPYQLVLQHSRLRGRQHGPNVCAVQKVIGTNRKYFTNCKQWYQRKICGKSTVISYECCPGYEKVPGEKGCPAALPLSNLYETLGVVGSTTTQLYTDRTEKLRPEMEGPGSFTIFAPSNEAWASLPAEVLDSLVSNVNIELLNALRYHMVGRRVLTDELKHGMTLTSMYQNSNIQIHHYPNGIVTVNCARLLKADHHATNGVVHLIDKVISTITNNIQQIIEIEDTFETLRAAVAASGLNTMLEGNGQYTLLAPTNEAFEKIPSETLNRILGDPEALRDLLNNHILKSAMCAEAIVAGLSVETLEGTTLEVGCSGDMLTINGKAIISNKDILATNGVIHYIDELLIPDSAKTLFELAAESDVSTAIDLFRQAGLGNHLSGSERLTLLAPLNSVFKDGTPPIDAHTRNLLRNHIIKDQLASKYLYHGQTLETLGGKKLRVFVYRNSLCIENSCIAAHDKRGRYGTLFTMDRVLTPPMGTVMDVLKGDNRFSMLVAAIQSAGLTETLNREGVYTVFAPTNEAFRALPPRERSRLLGDAKELANILKYHIGDEILVSGGIGALVRLKSLQGDKLEVSLKNNVVSVNKEPVAEPDIMATNGVVHVITNVLQPPANRPQERGDELADSALEIFKQASAFSRASQRSVRLAPVYQKLLERMKH

These are yes or no findings as the source states them, for the method shown. In cells and extracts the contact can be indirect. A result given as binding can be weak or reduced; the word gives no strength.
